Data as given in publication PMC4944147.
No constants are given. Whether binding was seen depends on the method and setting. Some binding calls cover weakened binding; strength is not graded here.

Target: interferon regulation factor 3 (IRF3), porcine, endogenous in primary porcine alveolar macrophages (pig (endogenous in PAMs)) (UniProt Q764M6)
Assay: native gel or EMSA

B1: interferon regulation factor 3 (IRF3), porcine, endogenous in primary porcine alveolar macrophages (protein, UniProt Q764M6 1-419)
chain: MGTQKPRILPWLISQLNQGQLEGVAWLDEGHTRFRIPWKHGLRQDAQQEDFGIFQAWAEASGAYTPGKDKPDLPTWKRNFRSALNRKEALRLAEDHSKDPHDPHKIYEFVTSGVGDFPEPDTSLDLSGRYSTSDTHEDSLDKLLSGMDLASDAGPQSLTLALEQPPQLSLSPSVDAPASCPNLGVRENPLKQLLANDDEWEFQVTVFYRGCQVFQQTVCSPGGLRLVGSEAEDGTLAGQPVRLPDPAASLTDRGVADYVRRVLSCLGGGLALWRAGQWLWAQRLGHCHVYWAMGEELIPDSGHKPDGEVPKDREGGVFDLGPFIEDLIAFIEGSRRSPRYTLWFCMGQSWPQDEPWVKRLVMVKVVPMCLRALVDMARDGGASSLENTVDLHISNSHPLSLTSDQYKACLRDLVEDMDF
- binding: binds
